BindingDB's records for PubMed 21964340

Test: Inhibition of TAF1B (unknown origin) incubated for 1 hr by colloidal coomassie staining based LC-MS/MS analysis

In the case of `CCNC(=O)C[C@@H]1N=C(c2ccc(Cl)cc2)c2cc(OC)ccc2-n2c(C)nnc21`, the IC50 is reported as 180 nM.
